Values of other authors, collected in patent publication US8815925B2, “Use of combination preparations comprising antifungal agents” (priority 2006, dated 2014).
Some entries share one result that the patent states for a list of compounds. For at least one compound, name, drawing or mass did not settle the structure.

system: COX1/COX2; conditions: highly-selective COX2-inhibitors with a market authorization; cited from earlier work

Compound	COX1/COX2-ratio (IC50)
Cc1ccc(-c2cc(C(F)(F)F)nn2-c2ccc(S(N)(=O)=O)cc2)cc1 [Celecoxib]	more than 100
CS(=O)(=O)c1ccc(C2=C(c3ccccc3)C(=O)OC2)cc1 [Rofecoxib]	more than 100
Cc1onc(-c2ccccc2)c1-c1ccc(S(N)(=O)=O)cc1 [Valdecoxib]	more than 100
